Oligonucleotides screened, 5′ to 3′:
SAM-II: SAM-II riboswitch RNA pseudoknot, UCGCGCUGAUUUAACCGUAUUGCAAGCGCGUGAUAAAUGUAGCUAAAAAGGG. Hit rate about 1% of about 21,000 compounds.
PreQ1: PreQ1 riboswitch RNA pseudoknot, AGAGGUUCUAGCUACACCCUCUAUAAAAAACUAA. From B. subtilis. Hit rate about 0.7% of about 24,000 compounds.
TPP: TPP riboswitch RNA three-way junction, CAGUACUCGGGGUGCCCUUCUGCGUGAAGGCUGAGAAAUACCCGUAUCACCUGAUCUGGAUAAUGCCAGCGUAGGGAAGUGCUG. Hit rate about 0.7% of about 24,000 compounds.

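The test is a small-molecule microarray: each compound is printed twice on a reactive slide, and binding shows as fluorescence of the labelled oligonucleotide after washing. For the PreQ1, TPP and SAM-II riboswitches the laboratory earlier reported (doi:10.1038/s41467-019-09493-3) 1 µM RNA, 2 h, and a rule that included a mean Z-score above 3 (spot signal-to-noise against the whole library), a score well above that on a control array, and duplicate spots agreeing (coefficient of variation under 100). The data file gives only the calls; its cut-offs may differ, and compounds hitting several targets are kept. The calls come from the array alone, and fixing a compound to the slide can hide its binding.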 A compound is marked hit if it was called a hit and no hit if it was screened but was not. Compounds were drawn at random from those tested, without regard to their results. A target missing from an entry has no call listed here. A dash means that no call is listed here.

- OC1CCCOC12CCN(c1cccc(C(F)(F)F)n1)CC2 (stereo unspecified) : SAM-II: no hit; PreQ1: no hit; TPP: no hit
- COc1ccccc1CCNCc1cccc(C(F)(F)F)c1 : SAM-II: no hit; PreQ1: no hit; TPP: no hit
- Fc1ccc(-c2ccc(CNCCN3CCOCC3)o2)cc1 : PreQ1: no hit; TPP: no hit
- CSc1nc(C)cc(Nc2ccc(N3CCOCC3)cc2)n1 : PreQ1: no hit; TPP: no hit
- Nc1nn2c(-c3ccccc3)nnc2s1 : SAM-II: no hit; PreQ1: no hit; TPP: no hit
- Cc1nc(NCCO)c(C#N)c2c1COC(C)(C)C2 : SAM-II: no hit; PreQ1: no hit; TPP: no hit
- C=C(C)Cn1c(CCNC(=O)CCCO)nc2ccccc21 : PreQ1: no hit; TPP: no hit
- CCNc1nn2ccccc2c1/C=C(/C#N)C(=O)OCC : SAM-II: no hit; PreQ1: no hit; TPP: no hit
- Nc1c2c(nc3ccccc13)CCCC2O (stereo unspecified) : SAM-II: no hit; PreQ1: no hit; TPP: no hit
- CN(C)C1CCN(Cc2cccc(C(=O)Nc3cccc(CO)c3)c2)C1 (stereo unspecified) : SAM-II: no hit; PreQ1: no hit; TPP: no hit
- Cc1csc(C2=C(N)N(Cc3ccc(F)cc3)CC2=O)n1 : PreQ1: no hit; TPP: no hit
- Cc1onc(-c2ccccc2Cl)c1C(=O)NCc1cc2n(n1)CCNC2 : SAM-II: no hit; PreQ1: no hit; TPP: no hit
- O=C(CC1COCCN1)N1CCN(Cc2cccc(Cl)c2)CC1 (stereo unspecified) : SAM-II: no hit; PreQ1: no hit; TPP: no hit
- CC(O)CCC(=O)NCCc1nc2ccccc2n1Cc1ccc(F)cc1 (stereo unspecified) : PreQ1: no hit; TPP: no hit
- C=Cc1c(C)c2cc3nc(cc4[nH]c(cc5nc(cc1[nH]2)C(C)=C5CCC(=O)O)c(CCC(=O)OC)c4C)[C@@]1(C)C3=CC=C(C(=O)OC)[C@H]1C(=O)OC : SAM-II: no hit; PreQ1: no hit; TPP: no hit
- Cc1cc(O)nc(=N)[nH]1 : SAM-II: no hit; PreQ1: no hit; TPP: no hit
- Cc1nn2c(NCc3ccccn3)c3c(nc2c1-c1ccccc1)CCC3 : PreQ1: no hit; TPP: no hit
- Nc1nc(CSc2ncccn2)nc(Nc2ccccc2)n1 : SAM-II: no hit; PreQ1: no hit; TPP: no hit
- Cc1ccc2c(CNCc3ccc(OC(C)C)cc3)c(C(=O)O)n(C)c2c1 : PreQ1: no hit; TPP: no hit
- Cc1ccc(CNC(=O)c2nn(-c3ccccc3Cl)nc2CO)cc1 : PreQ1: no hit; TPP: no hit

For reference, 2 entries once more:

compound,SAM-II,PreQ1,TPP
Cc1csc(C2=C(N)N(Cc3ccc(F)cc3)CC2=O)n1,-,no hit,no hit
Cc1cc(O)nc(=N)[nH]1,no hit,no hit,no hit

From ROBIN, a set of small-molecule microarray screens (doi:10.1002/anie.202211358).